Results on 71 molecules are retold here after the supplement of paper PMC7752906.

Structures can show the parent of a compound that is named as a salt. The list shows a part of the results. Repeats in this data set agree poorly, so a single value says little.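 Wells held roughly 40 S. mansoni schistosomula, imaged in bright field over time against wells given 0.1% DMSO. The paper defines hits as drugs with a Mahalanobis distance of at least 2.47, three standard deviations above the DMSO control mean. Degeneracy is the proportion of worms classified as opaque.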

In this assay the test system is Schistosoma mansoni schistosomula. In words: Mahalanobis distance of static-rate-frequency phenotype descriptors from DMSO controls (dimensionless); higher = stronger phenotypic change versus DMSO. The following applies: 10 µM; 72 h.
`CC(C)N(CCC(C(N)=O)(c1ccccc1)c1ccccn1)C(C)C` (stereo unspecified) [Disopyramide]: the Mahalanobis distance was inactive: 1.22.

In the case of `Nc1nc(N)nc(NC2CC2)n1` [Cyromazine], the Mahalanobis distance was inactive: 1.94.

With `CN1[C@@H]2CC[C@H]1C[C@@H](OC(=O)[C@H](CO)c1ccccc1)C2` [Hyoscyamine], the Mahalanobis distance is inactive: 1.85.

Regarding `O=C1CN=C(c2ccccc2Cl)c2cc([N+](=O)[O-])ccc2N1` [Clonazepam], the Mahalanobis distance was active: 4.74.

In the case of `C=C(C)[C@H]1CN[C@H](C(=O)O)[C@H]1CC(=O)O` [Kainic Acid], the Mahalanobis distance was inactive: 1.27.

On to `CC[C@H]1CN2CC[C@H]1C[C@@H]2[C@@H](O)c1ccnc2ccc(OC)cc12` [Hydroquinidine], for which the Mahalanobis distance is active: 2.8.

For `COc1ccc(CN2CCNCC2)c(OC)c1OC` [Trimetazidine], the Mahalanobis distance was inactive: 2.45.

As for `CC(C)CC(N(C)C)C1(c2ccc(Cl)cc2)CCC1` (stereo unspecified) [Sibutramine], the Mahalanobis distance was active: 2.49.

Turning to `CNC1(c2ccccc2Cl)CCCCC1=O` (stereo unspecified) [Ketamine], the Mahalanobis distance was active: 3.04.

With `CCN(CC)C(=O)N[C@H]1C=C2c3cccc4[nH]cc(c34)C[C@H]2N(C)C1` [Lisuride], the Mahalanobis distance was active: 2.51.

Regarding `O=C([O-])Cc1ccccc1.[Na+]` [Sodium Phenylacetate], the Mahalanobis distance was inactive: 1.52.

For `COc1ccc2c(c1)[C@]13CCCC[C@@H]1[C@H](C2)N(C)CC3` [Dextromethorphan Hydrobromide], the Mahalanobis distance is active: 4.71.

In the case of `CC(Cc1ccc(O)cc1)NCC(O)c1cc(O)cc(O)c1` (stereo unspecified) [Fenoterol Hydrobromide], the Mahalanobis distance was inactive: 1.54.

For `C=CCN=C=S` [Allylisothiocyanate], the Mahalanobis distance was inactive: 2.

Take `C=CC[C@]1(O)CC[C@H]2[C@@H]3CCC4=CC(=O)CCC4=C3C=C[C@@]21C` [Altrenogest]: the Mahalanobis distance was active: 3.43.

On to `O=C1C=C2C=C[C@@H]3C[C@@]2(O1)[C@H]1CCCCN31` [securinine], for which the Mahalanobis distance is active: 2.77.

As to `CCN[C@@H](C)Cc1cccc(C(F)(F)F)c1` [Dexfenfluramine], the Mahalanobis distance is active: 3.34.

For `NC(=O)C[S@@+]([O-])C(c1ccccc1)c1ccccc1` [Armodafinil], the Mahalanobis distance was inactive: 2.21.

`CC(C)=CC1C(C(=O)OCc2cccc(Oc3ccccc3)c2)C1(C)C` (stereo unspecified) [Phenothrin]: the Mahalanobis distance is inactive: 2.13.

Take `Nc1ccncc1` [4-aminopyridine]: the Mahalanobis distance is inactive: 2.15.

Take `COc1ccc(C(=O)N2CCCC2=O)cc1` [Aniracetam]: the Mahalanobis distance is active: 2.54.

`CC[C@@H](C(N)=O)N1CCCC1=O` [Levetiracetam]: the Mahalanobis distance was inactive: 1.2.

For the molecule `O=C(O)CCCc1ccc(N(CCCl)CCCl)cc1` [Chlorambucil], the Mahalanobis distance was inactive: 1.81.

Consider `CCCN1C[C@H](CSC)C[C@@H]2c3cccc4[nH]cc(c34)C[C@H]21` [Pergolide], for which the Mahalanobis distance is active: 6.2.

Take `CNc1ccc(C(=O)CC(O)CCC(C)C2OC(=O)CC(O)CC(=O)CC(O)CC(O)CC(O)CC(O)CC3(O)CC(O)C(C(=O)OC)C(CC(O[C@@H]4O[C@H](C)[C@@H](O)[C@H](N)[C@@H]4O)/C=C/C=C/C=C/C=C/C=C/C=C/C=C/C2C)O3)cc1.COC(=O)C1C(O)CC2(O)CC(O)CC(O)CC(O)CC(O)CC(=O)CC(O)CC(=O)OC(C(C)CCC(O)CC(=O)c3ccc(N)cc3)C(C)/C=C/C=C/C=C/C=C/C=C/C=C/C=C/C(O[C@@H]3O[C@H](C)[C@@H](O)[C@H](N)[C@@H]3O)CC1O2` (stereo partly specified) [mepartricin]: the Mahalanobis distance is inactive: 1.59.

On to `Cc1ncc(CNC(=O)N(CCCl)N=O)c(N)n1` [Nimustine], for which the Mahalanobis distance was inactive: 1.6.

On to `COc1cccc(C2(O)CCCCC2CN(C)C)c1` (stereo unspecified) [Tramadol], for which the Mahalanobis distance is inactive: 2.35.

Consider `COc1cccc(C2(O)CCCCC2CN(C)C)c1` (stereo unspecified) [Tramadol Hydrochloride], for which the Mahalanobis distance was active: 3.12.

Consider `CC(CCc1ccccc1)NC(C)C(O)c1ccc(O)cc1` (stereo unspecified) [Nylidrin], for which the Mahalanobis distance is active: 2.96.

As to `CN1C[C@H](C(=O)N[C@]2(C)O[C@@]3(O)[C@@H]4CCCN4C(=O)[C@H](Cc4ccccc4)N3C2=O)C[C@@H]2c3cccc4[nH]cc(c34)C[C@H]21` [Dihydroergotamine], the Mahalanobis distance is inactive: 2.33.

In the case of `CCC1(CC)C(=O)C=CNC1=O` [Pyrithyldione], the Mahalanobis distance was inactive: 2.44.

Regarding `CC(C)(C)NCC(O)c1cc(Cl)c(N)c(Cl)c1` (stereo unspecified) [Clenbuterol], the Mahalanobis distance was inactive: 2.09.

As to `COC(=O)C1=CCCN(C)C1` [Arecoline Hydrobromide], the Mahalanobis distance is active: 2.5.

`CNCC(=O)c1ccc(O)c(O)c1` [Adrenolone Hydrochloride]: the Mahalanobis distance was inactive: 2.35.

As for `O=C(NC(=O)c1c(F)cccc1F)Nc1cc(Cl)c(OC(F)(F)C(F)C(F)(F)F)cc1Cl` (stereo unspecified) [Lufenuron], the Mahalanobis distance was inactive: 2.07.

As to `COc1ccc(CCN2CCC(Nc3nc4ccccc4n3Cc3ccc(F)cc3)CC2)cc1` [Astemizole], the Mahalanobis distance was inactive: 1.73.

As for `Oc1cc(Cl)ccc1Oc1ccc(Cl)cc1Cl` [Triclosan], the Mahalanobis distance was active: 2.63.

On to `COc1ccc(O)c(C(C)(C)C)c1.COc1ccc(O)cc1C(C)(C)C` [Butylated Hydroxyanisole], for which the Mahalanobis distance is active: 3.07.

Regarding `CCn1cc(C(=O)O)c(=O)c2cc3c(cc21)OCO3` [Oxolinic Acid], the Mahalanobis distance was inactive: 2.09.

With `C[N+]1(C)[C@@H]2C[C@@H](OC(=O)[C@H](CO)c3ccccc3)C[C@H]1[C@@H]1O[C@@H]12` [Methscopolamine Bromide], the Mahalanobis distance is inactive: 1.36.

For the molecule `CCN(C)C(=O)Oc1cccc([C@H](C)N(C)C)c1` [Rivastigmine Tartrate], the Mahalanobis distance is inactive: 1.65.

For `C[C@@H]1O[C@@H](O[C@H]2C[C@@H](O)[C@]3(CO)[C@H]4[C@H](O)C[C@]5(C)[C@@H](C6=CC(=O)OC6)CC[C@]5(O)[C@@H]4CC[C@]3(O)C2)[C@H](O)[C@H](O)[C@H]1O` [Ouabain], the Mahalanobis distance was active: 3.14.

As to `N=C1NC(=O)N2CC12` (stereo unspecified) [Imexon], the Mahalanobis distance was inactive: 1.84.

As for `C[N+]1([O-])[C@@H]2CC[C@H]1C[C@@H](OC(=O)C(CO)c1ccccc1)C2` (stereo partly specified) [Atropine Oxide], the Mahalanobis distance was inactive: 1.7.

Take `Clc1ccc(C(OCCN2CCCCC2)c2ccccc2)cc1` (stereo unspecified) [Cloperastine Hydrochloride]: the Mahalanobis distance was inactive: 1.95.

Consider `C[C@@H](CO)NC(=O)[C@@H]1C=C2c3cccc4[nH]cc(c34)C[C@H]2N(C)C1` [Ergonovine Maleate], for which the Mahalanobis distance was active: 4.9.

On to `C[C@@H](CO)NC(=O)[C@@H]1C=C2c3cccc4[nH]cc(c34)C[C@H]2N(C)C1` [Ergonovine], for which the Mahalanobis distance is active: 3.23.

As for `O=C1CN=C(c2ccccc2)c2cc([N+](=O)[O-])ccc2N1` [Nitrazepam], the Mahalanobis distance is active: 3.29.

Turning to `NC(=O)CN1CCCC1=O` [Piracetam], the Mahalanobis distance is inactive: 1.61.

As to `O=c1[nH]c(=O)n(Cl)c(=O)n1Cl` [Troclosene Potassium], the Mahalanobis distance was inactive: 1.75.

`CC(C)c1c(CN(C)C(C)Cc2ccccc2)n(C)n(-c2ccccc2)c1=O` (stereo unspecified) [Famprofazone]: the Mahalanobis distance is active: 2.75.

In the case of `C=CCN1C[C@H](C(=O)N(CCCN(C)C)C(=O)NCC)C[C@@H]2c3cccc4[nH]cc(c34)C[C@H]21` [Cabergoline], the Mahalanobis distance was active: 5.23.

As for `CC(CC(C(N)=O)(c1ccccc1)c1ccccc1)N(C)C` (stereo unspecified) [Aminopentamide Sulfate], the Mahalanobis distance was inactive: 1.48.

`OC[C@@H](O)[C@H]1O[C@@H]2O[C@H](C(Cl)(Cl)Cl)O[C@@H]2[C@H]1O` [Chloralose]: the Mahalanobis distance was inactive: 1.51.

On to `C[N+]12CCC(CC1)C(OC(=O)C(O)(c1ccccc1)c1ccccc1)C2` (stereo unspecified) [Clidinium Bromide], for which the Mahalanobis distance was inactive: 2.08.

Consider `CO[C@]12C[C@@H](COC(=O)c3cncc(Br)c3)CN(C)[C@@H]1Cc1cn(C)c3cccc2c13` [Nicergoline], for which the Mahalanobis distance is active: 3.27.

For the molecule `COC(=O)C(c1ccccc1)C1CCCCN1` (stereo unspecified) [Methylphenidate Hydrochloride], the Mahalanobis distance is inactive: 1.53.

Regarding `CCC(C)(C)O` [Amylene Hydrate], the Mahalanobis distance is inactive: 1.89.

With `C[C@]12Cc3c[nH]nc3C[C@@H]1CC[C@@H]1[C@@H]2CC[C@@]2(C)[C@H]1CC[C@]2(C)O` [Stanozolol], the Mahalanobis distance was active: 2.48.

Take `C[C@@H]1CC[C@H]2[C@@H](C)C(=O)O[C@@H]3O[C@@]4(C)CC[C@@H]1[C@]32OO4` [Artemisinin]: the Mahalanobis distance was inactive: 1.79.

With `COc1cc([C@@H]2c3cc4c(cc3[C@H](O)[C@H]3COC(=O)[C@H]23)OCO4)cc(OC)c1OC` [podofilox], the Mahalanobis distance is inactive: 2.11.

On to `CN(C)C(=O)Oc1cccc([N+](C)(C)C)c1` [Neostigmine Bromide], for which the Mahalanobis distance is inactive: 2.42.

In the case of `CN1[C@H]2C[C@H](OC(=O)[C@H](CO)c3ccccc3)C[C@@H]1[C@@H](O)C2` [Anisodamine Hydrobromide], the Mahalanobis distance was inactive: 2.46.

Take `CN1CCc2cc3c(cc2C1O)OCO3` (stereo unspecified) [Hydrastinine Hydrochloride]: the Mahalanobis distance is inactive: 1.81.

In the case of `NP(N)(=O)NC(=O)c1ccc(F)cc1` [Flurofamide], the Mahalanobis distance is inactive: 1.36.

For `CN1[C@@H]2CC[C@H]1C[C@@H](OC(=O)C(CO)c1ccccc1)C2` (stereo partly specified) [Atropine], the Mahalanobis distance is inactive: 1.66.

`C[C@]12CCC(=O)C=C1CC[C@@H]1[C@@H]2CC[C@@]2(C)[C@H]1CC[C@]2(C)O` [Methyltestosterone]: the Mahalanobis distance was active: 3.14.

Regarding `CC(C)C[C@H]1C(=O)N2CCC[C@H]2[C@]2(O)O[C@](NC(=O)[C@@H]3C=C4c5cccc6[nH]c(Br)c(c56)C[C@H]4N(C)C3)(C(C)C)C(=O)N12` [Bromocriptine Mesylate], the Mahalanobis distance is active: 3.23.

As to `CNCC(O)c1ccc(O)cc1` (stereo unspecified) [Oxedrine], the Mahalanobis distance was inactive: 1.44.

As for `C[C@]12CCC(=O)C(O)=C1CC[C@@H]1[C@@H]2CC[C@]2(C)C(=O)CC[C@@H]12` [Formestane], the Mahalanobis distance was inactive: 2.22.

Regarding `CCOP(=S)(OCC)Oc1cc(C)nc(C(C)C)n1` [Diazinon, Dimpylate], the Mahalanobis distance was inactive: 2.12.
